The other results are listed elsewhere or left out. Single values are uncertain, as repeats are few or missing.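 Imaging used 1,536-well plates; nuclei positive for cleaved PARP by antibody were divided by total DNA-stained nuclei to yield the apoptosis fraction. Doses for screening kept most cells viable, and cell lines differ markedly in resting and induced cleaved-PARP levels.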
Tests used:
Assay in all cases: cleaved PARP positive nuclei fraction relative to DMSO control; melanoma cells; higher = more apoptosis
Settings in all cases: library dose: low library concentration; 72 h
501Mel = tested on: 501Mel
A101D = tested on: A101D
A2058 = tested on: A2058
A375 = tested on: A375
C32 = tested on: C32
CBRC008 = tested on: CBRC008 (line from a melanoma biopsy)
CBRC014 = tested on: CBRC014 (line from a melanoma biopsy)
CBRC016 = tested on: CBRC016 (line from a melanoma biopsy)
CBRC017 = tested on: CBRC017 (line from a melanoma biopsy)
CBRC034 = tested on: CBRC034 (line from a melanoma biopsy)
COLO792 = tested on: COLO792
COLO800 = tested on: COLO800
COLO829 = tested on: COLO829
G361 = tested on: G361
IPC-298 = tested on: IPC-298
IST-MEL1 = tested on: IST-MEL1
LB2518-MEL = tested on: LB2518-MEL
LOXIMVI = tested on: LOXIMVI
MEL-HO = tested on: MEL-HO

Compound | cleaved PARP positive nuclei fraction (501Mel) [%] | cleaved PARP positive nuclei fraction (A101D) [%] | cleaved PARP positive nuclei fraction (A2058) [%] | cleaved PARP positive nuclei fraction (A375) [%] | cleaved PARP positive nuclei fraction (C32) [%] | cleaved PARP positive nuclei fraction (CBRC008) [%] | cleaved PARP positive nuclei fraction (CBRC014) [%] | cleaved PARP positive nuclei fraction (CBRC016) [%] | cleaved PARP positive nuclei fraction (CBRC017) [%] | cleaved PARP positive nuclei fraction (CBRC034) [%] | cleaved PARP positive nuclei fraction (COLO792) [%] | cleaved PARP positive nuclei fraction (COLO800) [%] | cleaved PARP positive nuclei fraction (COLO829) [%] | cleaved PARP positive nuclei fraction (G361) [%] | cleaved PARP positive nuclei fraction (IPC-298) [%] | cleaved PARP positive nuclei fraction (IST-MEL1) [%] | cleaved PARP positive nuclei fraction (LB2518-MEL) [%] | cleaved PARP positive nuclei fraction (LOXIMVI) [%] | cleaved PARP positive nuclei fraction (MEL-HO) [%]
O=C(/C=C/c1cccnc1)NCCCCC1CCN(C(=O)c2ccccc2)CC1 + C[C@]1(c2nc3c(C(N)=O)cccc3[nH]2)CCCN1 [Veliparib] (first compound 0.01 µM, partner dose 1.4 µM) | 84.9 | 87.4 | 162 | 130 | 85.5 | 2070 | 103 | 150 | 923 | 725 | 287 | 52.5 | 173 | 4280 | 173 | 176 | 125 | 87 | 156
O=C(Nc1cc(C(F)(F)F)cc(C(F)(F)F)c1)c1cc(Cl)ccc1O + O=c1[nH]nc(Sc2ncc([N+](=O)[O-])s2)n1-c1ccc2c(c1)OCCO2 [BI78D3] (first compound 0.016 µM, partner dose 0.2 µM) | 135 | 42.2 | 90 | 105 | 40.1 | 178 | 110 | 137 | 100 | 43.7 | 121 | 33.6 | 41.8 | 84.3 | 180 | 62.9 | 45.8 | 57.8 | 123
N#CC[C@H](C1CCCC1)n1cc(-c2ncnc3[nH]ccc23)cn1 [ruxolitinib] + CN(c1ncccc1CNc1nc(Nc2ccc3c(c2)CC(=O)N3)ncc1C(F)(F)F)S(C)(=O)=O [PF562271] (first compound 1 µM, partner dose 0.08 µM) | 95.9 | 54.5 | 74.9 | 146 | 84.6 | 56.7 | 97.2 | 138 | 107 | 118 | 113 | 67 | 74.5 | 127 | 253 | 65.6 | 82.4 | 43 | 47.3
Cc1ccc(Nc2nccc(N(C)c3ccc4c(C)n(C)nc4c3)n2)cc1S(N)(=O)=O [Pazopanib] + Cn1c(=O)n(-c2ccc(C(C)(C)C#N)cc2)c2c3cc(-c4cnc5ccccc5c4)ccc3ncc21 [NVP-BEZ235] (first compound 0.4 µM, partner dose 0.004 µM) | 83.4 | 59.4 | 42.5 | 21.8 | 75.3 | 80.5 | 104 | 142 | 119 | 79.1 | 123 | 110 | 53.3 | 185 | 116 | 143 | 334 | 33.2 | 33.5
O=C(Nc1cc(C(F)(F)F)cc(C(F)(F)F)c1)c1cc(Cl)ccc1O + C#Cc1cccc(Nc2ncnc3cc(OCCOC)c(OCCOC)cc23)c1 [erlotinib] (first compound 0.016 µM, partner dose 0.8 µM) | 139 | 32 | 157 | 176 | 159 | 383 | 85.1 | 155 | 257 | 151 | 121 | 12.2 | 129 | 151 | 29.2 | 64.4 | 64.6 | 57.9 | 38.7
O=C(/C=C/c1cccnc1)NCCCCC1CCN(C(=O)c2ccccc2)CC1 + CCCS(=O)(=O)Nc1ccc(F)c(C(=O)c2c[nH]c3ncc(Cl)cc23)c1F [PLX4720] (first compound 0.01 µM, partner dose 0.08 µM) | 50.7 | 117 | 55.3 | 89.1 | 122 | 3250 | 116 | 1920 | 829 | 871 | 470 | 247 | 180 | 3000 | 491 | 135 | 167 | 120 | 56.9
Cc1ccc(Nc2nccc(N(C)c3ccc4c(C)n(C)nc4c3)n2)cc1S(N)(=O)=O [Pazopanib] + C=CCNC1=C2C[C@@H](C)C[C@H](OC)[C@H](O)[C@@H](C)/C=C(\C)[C@H](OC(N)=O)[C@@H](OC)/C=C\C=C(/C)C(=O)NC(=CC1=O)C2=O [Tanespimycin] (first compound 0.4 µM, partner dose 0.002 µM) | 152 | 110 | 99.2 | 198 | 83.7 | 56.2 | 129 | 150 | 198 | 142 | 115 | 66.3 | 108 | 123 | 210 | 84.1 | 127 | 94.6 | 83
O=C(Nc1cc(C(F)(F)F)cc(C(F)(F)F)c1)c1cc(Cl)ccc1O + Nc1cccc2c1CN(C1CCC(=O)NC1=O)C2=O [lenalidomide] (first compound 0.016 µM, partner dose 1 µM) | 79.5 | 75.5 | 62.7 | 64.4 | 64.3 | 71.8 | 103 | 113 | 82 | 96.1 | 80 | 71.1 | 87 | 62.1 | 132 | 64.2 | 119 | 77.6 | 54.6
O=c1[nH]nc(Sc2ncc([N+](=O)[O-])s2)n1-c1ccc2c(c1)OCCO2 + CC(=O)c1c(C)c2cnc(Nc3ccc(N4CCNCC4)cn3)nc2n(C2CCCC2)c1=O [palbociclib] (first compound 0.2 µM, partner dose 0.04 µM) | 74.4 | 55.3 | 47.6 | 93.8 | 173 | 68.5 | 86.4 | 80.3 | 129 | 35.5 | 41.7 | 131 | 82.3 | 81.1 | 148 | 78.3 | 235 | 33 | 245
O=c1[nH]nc(Sc2ncc([N+](=O)[O-])s2)n1-c1ccc2c(c1)OCCO2 + COCC[n+]1c2c(n(Cc3cnccn3)c1C)C(=O)c1ccccc1C2=O [YM155] (first compound 0.2 µM, partner dose 0.0004 µM) | 140 | 32.9 | 67.4 | 132 | 87.2 | 208 | 87.4 | 131 | 111 | 57.3 | 105 | 102 | 164 | 38.8 | 90.9 | 33.7 | 125 | 65.4 | 86.2
Cc1cc(Nc2cc(N3CCN(C)CC3)nc(Sc3ccc(NC(=O)C4CC4)cc3)n2)n[nH]1 [Tozasertib] + C[C@]1(O)C[C@@H](c2nc(-c3ccc4ccc(-c5ccccc5)nc4c3)c3c(N)nccn32)C1 [OSI906] (first compound 0.006 µM, partner dose 0.4 µM) | 51 | 408 | 69.3 | 576 | 81.3 | 101 | 93.6 | 95.8 | 156 | 65.4 | 97.2 | 153 | 65.8 | 106 | 90 | 138 | 29.3 | 107 | 192
Cc1cc(Nc2cc(N3CCN(C)CC3)nc(Sc3ccc(NC(=O)C4CC4)cc3)n2)n[nH]1 [Tozasertib] + CC[C@]1(O)C[C@H]2CN(CCc3c([nH]c4ccccc34)[C@@](C(=O)OC)(c3cc4c(cc3OC)N(C=O)[C@H]3[C@@](O)(C(=O)OC)[C@H](OC(C)=O)[C@]5(CC)C=CCN6CC[C@]43[C@@H]65)C2)C1 [vincristine] (first compound 0.006 µM, partner dose 0.0001 µM) | 80.6 | 51.2 | 228 | 103 | 75.2 | 122 | 87.6 | 104 | 147 | 122 | 87.5 | 271 | 135 | 133 | 132 | 123 | 92.3 | 133 | 72.9
O=C(/C=C/c1cccnc1)NCCCCC1CCN(C(=O)c2ccccc2)CC1 + C=C(c1ccc(C(=O)O)cc1)c1cc2c(cc1C)C(C)(C)CCC2(C)C [Bexarotene] (first compound 0.01 µM, partner dose 2 µM) | 107 | 85.9 | 101 | 68 | 68.1 | 2280 | 126 | 334 | 522 | 2620 | 1300 | 201 | 363 | 3650 | 289 | 185 | 120 | 86 | 95.8

Two entries from above in another layout:
Compound	cleaved PARP positive nuclei fraction (501Mel) [%]	cleaved PARP positive nuclei fraction (A101D) [%]	cleaved PARP positive nuclei fraction (A2058) [%]	cleaved PARP positive nuclei fraction (A375) [%]	cleaved PARP positive nuclei fraction (C32) [%]	cleaved PARP positive nuclei fraction (CBRC008) [%]	cleaved PARP positive nuclei fraction (CBRC014) [%]	cleaved PARP positive nuclei fraction (CBRC016) [%]	cleaved PARP positive nuclei fraction (CBRC017) [%]	cleaved PARP positive nuclei fraction (CBRC034) [%]	cleaved PARP positive nuclei fraction (COLO792) [%]	cleaved PARP positive nuclei fraction (COLO800) [%]	cleaved PARP positive nuclei fraction (COLO829) [%]	cleaved PARP positive nuclei fraction (G361) [%]	cleaved PARP positive nuclei fraction (IPC-298) [%]	cleaved PARP positive nuclei fraction (IST-MEL1) [%]	cleaved PARP positive nuclei fraction (LB2518-MEL) [%]	cleaved PARP positive nuclei fraction (LOXIMVI) [%]	cleaved PARP positive nuclei fraction (MEL-HO) [%]
O=C(Nc1cc(C(F)(F)F)cc(C(F)(F)F)c1)c1cc(Cl)ccc1O + Nc1cccc2c1CN(C1CCC(=O)NC1=O)C2=O [lenalidomide] (first compound 0.016 µM, partner dose 1 µM)	79.5	75.5	62.7	64.4	64.3	71.8	103	113	82	96.1	80	71.1	87	62.1	132	64.2	119	77.6	54.6
O=c1[nH]nc(Sc2ncc([N+](=O)[O-])s2)n1-c1ccc2c(c1)OCCO2 + CC(=O)c1c(C)c2cnc(Nc3ccc(N4CCNCC4)cn3)nc2n(C2CCCC2)c1=O [palbociclib] (first compound 0.2 µM, partner dose 0.04 µM)	74.4	55.3	47.6	93.8	173	68.5	86.4	80.3	129	35.5	41.7	131	82.3	81.1	148	78.3	235	33	245

Reference: the supplement of paper PMC4604168 (melanoma cell lines)
